From PubChem BioAssay AID188 (DTP/NCI, 2004) come the findings set out here.

The test relates to CD2F1 mice, nontumored, toxicity/survival. Nature of the test: NCI In Vivo Anticancer Drug Screen. Data for tumor model Nontumored Animals (Toxicity Test) in CD2F1 (CDF1) mice.

Values are animals surviving of animals treated; these mice carried no tumour. Survivors were counted at the toxicity check, usually on the fifth day, unless a day is given; later deaths do not show. Schedule codes are those of the source, taken here to give the interval after Q, in days (D) or hours (H), and the number of doses after X.

On to `Cc1cc2c(c3oc(C4(C)OC4C4OC4C)cc(=O)c13)C(=O)c1c(O)c(C3CC(C)(N(C)C)C(O)C(C)O3)cc(C3CC(N(C)C)C(O)C(C)O3)c1C2=O` (centres undefined), for which the survivor count is, setting by setting: (dose: 0.01 mg/kg/injection, schedule: Q01DX009 (oral), vehicle: saline) 8 of 8; (dose: 0.03 mg/kg/injection, schedule: Q01DX009 (oral), vehicle: saline) 8 of 8; (dose: 0.06 mg/kg/injection, schedule: Q01DX001 (ip), vehicle: saline) 8 of 8; (dose: 0.06 mg/kg/injection, schedule: Q01DX001 (oral), vehicle: saline) 8 of 8; (dose: 0.06 mg/kg/injection, schedule: Q01DX009 (oral), vehicle: saline) 8 of 8; (dose: 0.07 mg/kg/injection, schedule: Q01DX009 (oral), vehicle: saline) 8 of 8. Moreover, the survivor count runs as follows: (dose: 0.12 mg/kg/injection, schedule: Q01DX001 (ip), vehicle: saline) 8 of 8; (dose: 0.12 mg/kg/injection, schedule: Q01DX001 (oral), vehicle: saline) 8 of 8; (dose: 0.12 mg/kg/injection, schedule: Q01DX009 (oral), vehicle: saline) 8 of 8; (dose: 0.13 mg/kg/injection, schedule: Q01DX009 (oral), vehicle: saline) 8 of 8; (dose: 0.24 mg/kg/injection, schedule: Q01DX001 (ip), vehicle: saline) 8 of 8; (dose: 0.24 mg/kg/injection, schedule: Q01DX001 (oral), vehicle: saline) 8 of 8. The survivor count reads like this: (dose: 0.25 mg/kg/injection, schedule: Q01DX001 (oral), vehicle: saline) 8 of 8; (dose: 0.25 mg/kg/injection, schedule: Q01DX009 (oral), vehicle: saline) 8 of 8; (dose: 0.48 mg/kg/injection, schedule: Q01DX001 (ip), vehicle: saline) 4 of 8; (dose: 0.48 mg/kg/injection, schedule: Q01DX001 (oral), vehicle: saline) 8 of 8; (dose: 0.5 mg/kg/injection, schedule: Q01DX001 (oral), vehicle: saline) 8 of 8; (dose: 0.5 mg/kg/injection, schedule: Q01DX009 (oral), vehicle: saline) 8 of 8. Besides, the survivor count is 8 of 8 (dose: 1.0 mg/kg/injection, schedule: Q01DX001 (oral), vehicle: saline); 8 of 8 (dose: 2.0 mg/kg/injection, schedule: Q01DX001 (oral), vehicle: saline); 8 of 8 (dose: 1.0 micrograms/kg/injection, schedule: Q03HX024 (ip), vehicle: saline); 8 of 8 (dose: 2.0 micrograms/kg/injection, schedule: Q03HX016 (ip), vehicle: saline); 8 of 8 (dose: 2.0 micrograms/kg/injection, schedule: Q03HX024 (ip), vehicle: saline); 8 of 8 (dose: 4.0 micrograms/kg/injection, schedule: Q01DX009 (ip), vehicle: saline). Moreover, the survivor count is reported as 8 of 8 (dose: 4.0 micrograms/kg/injection, schedule: Q03HX016 (ip), vehicle: saline); 8 of 8 (dose: 4.0 micrograms/kg/injection, schedule: Q03HX024 (ip), vehicle: saline); 8 of 8 (dose: 8.0 micrograms/kg/injection, schedule: Q01DX009 (ip), vehicle: saline); 8 of 8 (dose: 8.0 micrograms/kg/injection, schedule: Q03HX008 (ip), vehicle: saline); 8 of 8 (dose: 8.0 micrograms/kg/injection, schedule: Q03HX016 (ip), vehicle: saline); 8 of 8 (dose: 8.0 micrograms/kg/injection, schedule: Q03HX024 (ip), vehicle: saline). Also, the survivor count is on record as 8 of 8 (dose: 8.0 micrograms/kg/injection, schedule: Q04DX003 (ip), vehicle: saline); 8 of 8 (dose: 15.0 micrograms/kg/injection, schedule: Q01DX009 (ip), vehicle: saline); 8 of 8 (dose: 15.0 micrograms/kg/injection, schedule: Q03HX008 (ip), vehicle: saline); 8 of 8 (dose: 15.0 micrograms/kg/injection, schedule: Q03HX016 (ip), vehicle: saline); 8 of 8 (dose: 15.0 micrograms/kg/injection, schedule: Q04DX003 (ip), vehicle: saline); 8 of 8 (dose: 15.0 micrograms/kg/injection, schedule: Q08DX002 (ip), vehicle: saline). In addition, the survivor count runs as follows: (dose: 30.0 micrograms/kg/injection, schedule: Q01DX009 (ip), vehicle: saline) 8 of 8; (dose: 30.0 micrograms/kg/injection, schedule: Q03HX008 (ip), vehicle: saline) 8 of 8; (dose: 30.0 micrograms/kg/injection, schedule: Q04DX003 (ip), vehicle: saline) 8 of 8; (dose: 30.0 micrograms/kg/injection, schedule: Q08DX002 (ip), vehicle: saline) 7 of 7; (dose: 60.0 micrograms/kg/injection, schedule: Q03HX008 (ip), vehicle: saline) 8 of 8; (dose: 60.0 micrograms/kg/injection, schedule: Q04DX003 (ip), vehicle: saline) 8 of 8. Moreover, the survivor count is, setting by setting: (dose: 60.0 micrograms/kg/injection, schedule: Q08DX002 (ip), vehicle: saline) 8 of 8; (dose: 120.0 micrograms/kg/injection, schedule: Q08DX002 (ip), vehicle: saline) 8 of 8.
Regarding `N#Cc1cn(C2OC(CO)C(O)C2O)c2ncnc(N)c12` (centres undefined), the survivor count runs as follows: (dose: 0.1 mg/kg/injection, schedule: Q06HX024 (ip), vehicle: saline) 8 of 8; (dose: 0.2 mg/kg/injection, schedule: Q06HX024 (ip), vehicle: saline) 8 of 8; (dose: 0.4 mg/kg/injection, schedule: Q06HX024 (ip), vehicle: saline) 6 of 7.
For `O=C(O)c1ccc(C(=O)O)c(C(=O)O)c1.[NH-]C1CCCCC1[NH-].[Pt+2]`, the survivor count runs as follows: (dose: 50.0 mg/kg/injection, schedule: Q01DX001 (ip), vehicle: sodium bicarbonate) 9 of 10; (dose: 55.0 mg/kg/injection, schedule: Q01DX001 (ip), vehicle: sodium bicarbonate) 10 of 10; (dose: 60.0 mg/kg/injection, schedule: Q01DX001 (ip), vehicle: sodium bicarbonate) 8 of 10; (dose: 65.0 mg/kg/injection, schedule: Q01DX001 (ip), vehicle: sodium bicarbonate) 7 of 10; (dose: 70.0 mg/kg/injection, schedule: Q01DX001 (ip), vehicle: sodium bicarbonate) 2 of 10; (dose: 75.0 mg/kg/injection, schedule: Q01DX001 (ip), vehicle: sodium bicarbonate) 5 of 10.
Consider `Nc1nc(Br)c2ccccc2c1-c1ccc([N+](=O)[O-])cc1`, for which the survivor count (dose: 1.0 mg/kg/injection, schedule: Q01DX001 (ip), vehicle: saline with Tween-80) is 2 of 2; the survivor count (dose: 10.0 mg/kg/injection, schedule: Q01DX001 (ip), vehicle: saline with Tween-80) is reported as 2 of 2; the survivor count (dose: 100.0 mg/kg/injection, schedule: Q01DX001 (ip), vehicle: saline with Tween-80) is given as 2 of 2.
With `Nc1nc(N)c(NC=O)c(N)n1`, the survivor count is, setting by setting: (dose: 1.0 mg/kg/injection, schedule: Q01DX001 (ip), vehicle: water) 2 of 2; (dose: 10.0 mg/kg/injection, schedule: Q01DX001 (ip), vehicle: water) 2 of 2; (dose: 100.0 mg/kg/injection, schedule: Q01DX001 (ip), vehicle: water) 2 of 2.
